Measurements: the supplement of paper PMC11732987, “Enantioselective OTUD7B fragment discovery through chemoproteomics screening and high-throughput optimisation” (Communications Chemistry, 2025)
The other results are listed elsewhere or left out. The data scatter; read single values as rough.

Protein sequences, listed by entry. Tags and fused reporters are not part of them. Lines headed by an entry give the natural chain unless they say otherwise; changes in a name come on top. Residues count along the entry.
UniProt Q6NSZ9: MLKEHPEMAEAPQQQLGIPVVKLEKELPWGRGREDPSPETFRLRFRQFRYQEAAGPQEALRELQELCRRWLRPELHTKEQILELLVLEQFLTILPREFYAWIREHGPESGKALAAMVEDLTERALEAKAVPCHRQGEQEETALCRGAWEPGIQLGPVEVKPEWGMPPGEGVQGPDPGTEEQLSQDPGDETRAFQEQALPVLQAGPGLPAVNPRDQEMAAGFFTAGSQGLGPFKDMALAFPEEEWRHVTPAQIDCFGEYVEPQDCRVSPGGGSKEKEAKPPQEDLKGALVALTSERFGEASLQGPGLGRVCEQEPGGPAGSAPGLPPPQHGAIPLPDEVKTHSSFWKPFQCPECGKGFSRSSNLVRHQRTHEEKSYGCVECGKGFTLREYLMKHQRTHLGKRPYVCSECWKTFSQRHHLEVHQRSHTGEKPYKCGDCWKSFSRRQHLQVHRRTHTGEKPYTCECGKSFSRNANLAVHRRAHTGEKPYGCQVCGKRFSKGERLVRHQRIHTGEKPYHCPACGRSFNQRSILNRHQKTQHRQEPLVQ
UniProt Q9UGR2, 142-162: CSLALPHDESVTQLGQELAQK
UniProt Q7Z3T8: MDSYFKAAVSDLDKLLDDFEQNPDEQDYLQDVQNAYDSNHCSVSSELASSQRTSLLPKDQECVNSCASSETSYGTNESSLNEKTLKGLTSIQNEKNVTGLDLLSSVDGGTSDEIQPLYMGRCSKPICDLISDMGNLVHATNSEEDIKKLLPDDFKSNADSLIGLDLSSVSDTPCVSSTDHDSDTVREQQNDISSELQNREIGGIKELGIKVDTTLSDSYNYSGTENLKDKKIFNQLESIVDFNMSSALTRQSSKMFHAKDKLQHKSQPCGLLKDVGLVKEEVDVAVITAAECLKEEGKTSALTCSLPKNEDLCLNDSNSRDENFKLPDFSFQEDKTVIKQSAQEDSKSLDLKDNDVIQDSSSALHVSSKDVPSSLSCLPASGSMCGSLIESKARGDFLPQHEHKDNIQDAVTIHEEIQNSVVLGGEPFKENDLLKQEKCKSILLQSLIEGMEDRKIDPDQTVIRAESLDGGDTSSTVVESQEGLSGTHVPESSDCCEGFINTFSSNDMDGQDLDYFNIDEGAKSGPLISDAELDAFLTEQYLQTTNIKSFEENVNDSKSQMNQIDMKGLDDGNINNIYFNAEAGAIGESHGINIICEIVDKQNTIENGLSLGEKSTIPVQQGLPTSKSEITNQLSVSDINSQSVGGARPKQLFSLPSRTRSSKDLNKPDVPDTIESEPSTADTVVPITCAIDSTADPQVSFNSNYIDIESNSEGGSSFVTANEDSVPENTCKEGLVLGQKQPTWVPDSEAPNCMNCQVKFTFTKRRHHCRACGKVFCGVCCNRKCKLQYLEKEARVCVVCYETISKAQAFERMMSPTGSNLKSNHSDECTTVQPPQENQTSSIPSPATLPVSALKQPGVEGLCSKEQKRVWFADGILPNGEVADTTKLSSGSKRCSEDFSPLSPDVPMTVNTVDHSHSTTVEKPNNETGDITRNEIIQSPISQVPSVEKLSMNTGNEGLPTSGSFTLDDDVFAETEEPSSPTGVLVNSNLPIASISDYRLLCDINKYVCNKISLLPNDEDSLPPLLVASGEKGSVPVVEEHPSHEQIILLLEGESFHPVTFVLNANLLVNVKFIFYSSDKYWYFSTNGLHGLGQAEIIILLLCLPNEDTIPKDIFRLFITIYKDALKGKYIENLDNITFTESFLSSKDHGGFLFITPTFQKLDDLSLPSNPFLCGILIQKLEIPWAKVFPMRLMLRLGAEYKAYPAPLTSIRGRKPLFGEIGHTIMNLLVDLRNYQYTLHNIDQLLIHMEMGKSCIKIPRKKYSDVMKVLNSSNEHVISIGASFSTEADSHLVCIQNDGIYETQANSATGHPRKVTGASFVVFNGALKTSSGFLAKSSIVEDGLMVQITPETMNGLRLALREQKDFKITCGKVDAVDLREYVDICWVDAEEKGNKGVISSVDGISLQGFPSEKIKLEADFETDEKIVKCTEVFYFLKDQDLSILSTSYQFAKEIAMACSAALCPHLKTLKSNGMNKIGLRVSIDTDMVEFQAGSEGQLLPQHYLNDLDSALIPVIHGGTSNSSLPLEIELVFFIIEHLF
UniProt Q8TCF1: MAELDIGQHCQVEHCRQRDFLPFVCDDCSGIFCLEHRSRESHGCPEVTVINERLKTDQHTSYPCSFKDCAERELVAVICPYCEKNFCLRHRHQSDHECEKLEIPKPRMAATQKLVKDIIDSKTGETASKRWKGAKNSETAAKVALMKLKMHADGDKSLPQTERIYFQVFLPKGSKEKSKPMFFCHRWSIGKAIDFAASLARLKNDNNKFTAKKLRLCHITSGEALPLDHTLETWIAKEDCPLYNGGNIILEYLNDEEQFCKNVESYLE
UniProt Q96K58, 40-65: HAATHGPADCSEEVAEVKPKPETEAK
UniProt O95159: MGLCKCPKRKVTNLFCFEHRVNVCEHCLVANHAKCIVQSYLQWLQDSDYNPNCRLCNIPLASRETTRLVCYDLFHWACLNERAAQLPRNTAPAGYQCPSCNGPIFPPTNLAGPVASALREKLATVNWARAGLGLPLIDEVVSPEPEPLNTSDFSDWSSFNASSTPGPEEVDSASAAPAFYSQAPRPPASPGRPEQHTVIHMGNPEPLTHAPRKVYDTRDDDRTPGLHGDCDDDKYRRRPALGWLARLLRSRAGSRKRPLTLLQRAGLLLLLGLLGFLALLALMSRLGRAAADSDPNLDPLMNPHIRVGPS
UniProt Q9H582, 193-213: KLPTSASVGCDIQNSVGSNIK
UniProt Q68DK2: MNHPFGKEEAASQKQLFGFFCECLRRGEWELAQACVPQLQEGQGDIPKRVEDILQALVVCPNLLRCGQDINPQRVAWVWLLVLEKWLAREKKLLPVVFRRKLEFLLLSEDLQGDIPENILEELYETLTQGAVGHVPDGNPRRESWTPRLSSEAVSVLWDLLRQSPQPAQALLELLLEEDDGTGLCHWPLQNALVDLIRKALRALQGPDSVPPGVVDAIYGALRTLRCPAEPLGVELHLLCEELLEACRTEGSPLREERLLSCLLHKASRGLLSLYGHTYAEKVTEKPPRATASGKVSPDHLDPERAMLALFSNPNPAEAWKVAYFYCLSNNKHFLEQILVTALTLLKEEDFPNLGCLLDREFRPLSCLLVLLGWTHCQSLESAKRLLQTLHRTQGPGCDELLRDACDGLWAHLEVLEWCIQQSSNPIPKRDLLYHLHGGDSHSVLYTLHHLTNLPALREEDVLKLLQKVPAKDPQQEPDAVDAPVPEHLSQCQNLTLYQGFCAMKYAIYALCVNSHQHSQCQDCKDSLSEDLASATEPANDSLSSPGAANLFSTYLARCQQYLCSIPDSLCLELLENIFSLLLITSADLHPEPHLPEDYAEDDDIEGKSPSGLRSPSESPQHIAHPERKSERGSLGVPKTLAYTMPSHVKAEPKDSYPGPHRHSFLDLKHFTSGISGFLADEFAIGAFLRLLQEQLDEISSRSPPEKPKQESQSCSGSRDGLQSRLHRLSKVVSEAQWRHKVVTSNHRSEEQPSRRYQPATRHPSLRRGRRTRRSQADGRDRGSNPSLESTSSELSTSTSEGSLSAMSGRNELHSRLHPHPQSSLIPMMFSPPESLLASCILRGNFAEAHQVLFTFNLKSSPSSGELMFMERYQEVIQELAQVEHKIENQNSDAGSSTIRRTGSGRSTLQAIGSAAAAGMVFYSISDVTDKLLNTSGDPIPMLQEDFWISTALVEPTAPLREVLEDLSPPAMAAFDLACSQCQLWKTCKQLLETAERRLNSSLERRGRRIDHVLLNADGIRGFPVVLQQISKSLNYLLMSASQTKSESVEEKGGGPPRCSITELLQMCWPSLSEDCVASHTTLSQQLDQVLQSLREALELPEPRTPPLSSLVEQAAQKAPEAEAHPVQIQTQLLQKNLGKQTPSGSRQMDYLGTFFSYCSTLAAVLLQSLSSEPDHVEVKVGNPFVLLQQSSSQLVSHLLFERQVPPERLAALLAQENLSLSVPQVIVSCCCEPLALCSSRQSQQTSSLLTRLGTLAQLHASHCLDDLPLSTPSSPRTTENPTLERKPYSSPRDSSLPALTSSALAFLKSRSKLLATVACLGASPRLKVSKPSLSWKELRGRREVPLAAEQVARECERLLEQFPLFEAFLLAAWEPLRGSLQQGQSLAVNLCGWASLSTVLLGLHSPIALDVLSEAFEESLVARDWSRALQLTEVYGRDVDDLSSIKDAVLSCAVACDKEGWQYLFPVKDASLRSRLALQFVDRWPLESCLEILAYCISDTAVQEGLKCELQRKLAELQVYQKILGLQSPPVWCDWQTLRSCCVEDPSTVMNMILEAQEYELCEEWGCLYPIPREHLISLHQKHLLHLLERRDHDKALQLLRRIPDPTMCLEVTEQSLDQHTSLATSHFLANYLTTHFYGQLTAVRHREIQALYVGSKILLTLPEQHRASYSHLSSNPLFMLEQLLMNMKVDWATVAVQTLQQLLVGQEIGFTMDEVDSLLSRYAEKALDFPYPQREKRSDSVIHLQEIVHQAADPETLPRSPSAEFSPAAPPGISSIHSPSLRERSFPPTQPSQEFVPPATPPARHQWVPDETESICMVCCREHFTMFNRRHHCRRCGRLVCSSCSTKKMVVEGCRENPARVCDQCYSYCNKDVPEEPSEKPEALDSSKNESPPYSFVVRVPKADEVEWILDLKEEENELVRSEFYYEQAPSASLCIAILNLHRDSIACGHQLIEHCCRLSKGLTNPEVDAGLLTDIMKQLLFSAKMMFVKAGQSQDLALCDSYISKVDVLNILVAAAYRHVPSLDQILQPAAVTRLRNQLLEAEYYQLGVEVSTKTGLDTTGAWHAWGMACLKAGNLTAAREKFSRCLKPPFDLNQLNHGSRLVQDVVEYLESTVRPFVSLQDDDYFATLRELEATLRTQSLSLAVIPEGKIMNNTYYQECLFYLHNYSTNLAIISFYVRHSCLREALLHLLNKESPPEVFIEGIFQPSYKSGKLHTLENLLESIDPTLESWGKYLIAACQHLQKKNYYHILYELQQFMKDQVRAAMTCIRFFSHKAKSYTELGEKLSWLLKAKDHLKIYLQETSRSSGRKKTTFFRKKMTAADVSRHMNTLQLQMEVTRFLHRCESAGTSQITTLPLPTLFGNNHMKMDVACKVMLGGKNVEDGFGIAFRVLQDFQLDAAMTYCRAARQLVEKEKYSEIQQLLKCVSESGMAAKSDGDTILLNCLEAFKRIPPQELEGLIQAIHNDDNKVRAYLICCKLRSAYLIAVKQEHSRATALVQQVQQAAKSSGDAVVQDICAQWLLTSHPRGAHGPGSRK
UniProt Q86WB0: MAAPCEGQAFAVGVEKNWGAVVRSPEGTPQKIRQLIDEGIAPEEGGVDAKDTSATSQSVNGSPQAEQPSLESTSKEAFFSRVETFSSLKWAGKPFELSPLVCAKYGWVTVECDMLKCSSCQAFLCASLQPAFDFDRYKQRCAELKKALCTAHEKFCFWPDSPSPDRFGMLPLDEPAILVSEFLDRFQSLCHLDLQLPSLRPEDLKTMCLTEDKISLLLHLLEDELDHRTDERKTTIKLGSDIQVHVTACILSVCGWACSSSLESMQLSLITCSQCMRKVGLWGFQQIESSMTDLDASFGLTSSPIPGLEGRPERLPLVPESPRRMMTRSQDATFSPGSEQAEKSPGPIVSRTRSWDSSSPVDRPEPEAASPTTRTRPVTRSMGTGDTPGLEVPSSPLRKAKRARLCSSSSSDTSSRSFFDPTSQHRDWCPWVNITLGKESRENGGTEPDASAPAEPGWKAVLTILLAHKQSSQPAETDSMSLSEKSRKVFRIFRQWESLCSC
UniProt Q96AP4: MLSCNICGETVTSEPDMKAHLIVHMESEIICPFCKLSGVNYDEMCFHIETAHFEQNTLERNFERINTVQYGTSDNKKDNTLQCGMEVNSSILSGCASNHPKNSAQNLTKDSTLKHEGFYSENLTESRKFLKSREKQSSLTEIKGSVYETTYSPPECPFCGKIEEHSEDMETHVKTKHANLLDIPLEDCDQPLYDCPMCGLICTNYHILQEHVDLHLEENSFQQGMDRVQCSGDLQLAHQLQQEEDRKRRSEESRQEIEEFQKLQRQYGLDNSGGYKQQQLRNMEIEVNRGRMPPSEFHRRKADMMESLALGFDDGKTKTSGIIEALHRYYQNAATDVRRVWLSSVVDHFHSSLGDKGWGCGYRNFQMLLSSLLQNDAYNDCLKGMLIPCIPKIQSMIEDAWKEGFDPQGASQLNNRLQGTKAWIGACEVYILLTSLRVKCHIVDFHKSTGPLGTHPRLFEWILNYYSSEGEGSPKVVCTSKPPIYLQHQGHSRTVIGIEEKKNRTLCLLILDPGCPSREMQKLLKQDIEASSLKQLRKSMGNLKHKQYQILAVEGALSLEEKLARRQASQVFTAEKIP
UniProt Q9ULU4, 1061-1084: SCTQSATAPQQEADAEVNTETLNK

Tests used:
[1] = compound: ClCC(=O)N[C@@H]1CCCc2ccccc12; test: log2 mean competition ratio of IA-DTB cysteine labelling (DMSO/compound) (log2 ratio); higher = stronger cysteine engagement by compound; conditions: treatment time: 4 h, cell line lysate: HEK293T
Protocol: (§1)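 IA-DTB competitive cysteine chemoproteomics in HEK293T RIPA lysate. Lysates were treated with compound 29 or 30 at 50 or 200 µM for 4 h, then IA-DTB (500 µM, 1 h), trypsin-digested, NeutrAvidin-enriched and analysed by diaPASEF. Competition ratio = intensity DMSO / intensity compound (n=4 treated, n=64 DMSO); binding: mean log2 CR ≥ 1 and p ≤ 0.05 plus QC filters. Target is the cysteine site.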

[2] = compound: ClCC(=O)N[C@H]1CCCc2ccccc12; test: as above; conditions: treatment time: 4 h, cell line lysate: HEK293T
Protocol: as §1

Target: ZSCAN25 C144 (UniProt Q6NSZ9)
- log2 mean competition ratio ([1]; 50 µM): -0.323

Target: ZC3H7B C142 (UniProt Q9UGR2)
- log2 mean competition ratio ([1]; 50 µM): 0.0931
- log2 mean competition ratio ([1]; 200 µM): 0.457

Target: ZFYVE16 C1002 (UniProt Q7Z3T8)
- log2 mean competition ratio ([1]; 50 µM): -0.113
- log2 mean competition ratio ([1]; 200 µM): 0.061

Target: ZGPAT C377 (UniProt Q8N5A5)
- log2 mean competition ratio ([1]; 50 µM): 0.275
- log2 mean competition ratio ([1]; 200 µM): -0.0583

Target: ZNF503 C286
- log2 mean competition ratio ([1]; 50 µM): -0.23
- log2 mean competition ratio ([1]; 200 µM): 0.16

Target: ZNF512B C774 (UniProt Q96KM6)
- log2 mean competition ratio ([1]; 50 µM): 0.172
- log2 mean competition ratio ([1]; 200 µM): -0.151

Target: ZNF777 C602
- log2 mean competition ratio ([1]; 50 µM): -0.225
- log2 mean competition ratio ([1]; 200 µM): -0.0779

Target: ZFAND1 C184 (UniProt Q8TCF1)
- log2 mean competition ratio ([1]; 50 µM): 0.457
- log2 mean competition ratio ([1]; 200 µM): -0.0404

Target: ZNF292 C1050 (UniProt O60281)
- log2 mean competition ratio ([1]; 50 µM): -0.134
- log2 mean competition ratio ([1]; 200 µM): -0.00753

Target: ZNF106 C457 (UniProt Q9H2Y7)
- log2 mean competition ratio ([1]; 50 µM): 0.061
- log2 mean competition ratio ([1]; 200 µM): -0.0697

Target: ZNF668 C49 (UniProt Q96K58)
- log2 mean competition ratio ([1]; 50 µM): -0.0319
- log2 mean competition ratio ([1]; 200 µM): -0.135

Target: ZFPL1 C56 (UniProt O95159)
- log2 mean competition ratio ([1]; 50 µM): -0.0983
- log2 mean competition ratio ([1]; 200 µM): -0.000818

Target: ZER1 C113 (UniProt Q7Z7L7)
- log2 mean competition ratio ([1]; 50 µM): -0.0411
- log2 mean competition ratio ([1]; 200 µM): 0.114

Target: ZNF644 C202 (UniProt Q9H582)
- log2 mean competition ratio ([1]; 50 µM): 0.369
- log2 mean competition ratio ([1]; 200 µM): 0.586

Target: ZFYVE26 C2428 (UniProt Q68DK2)
- log2 mean competition ratio ([1]; 50 µM): -0.127
- log2 mean competition ratio ([1]; 200 µM): -0.0195

Target: ZNF263 C284
- log2 mean competition ratio ([1]; 50 µM): 0.0937
- log2 mean competition ratio ([1]; 200 µM): 0.175
- log2 mean competition ratio ([2]; 50 µM): 0.0742

Target: ZFYVE9 C1252 (UniProt O95405)
- log2 mean competition ratio ([1]; 50 µM): -0.0389
- log2 mean competition ratio ([1]; 200 µM): -0.109
- log2 mean competition ratio ([2]; 200 µM): -0.0908

Target: ZC3HC1 C156 (UniProt Q86WB0)
- log2 mean competition ratio ([1]; 50 µM): 0.0282
- log2 mean competition ratio ([1]; 200 µM): -0.235

Target: ZUP1 C230 (UniProt Q96AP4)
- log2 mean competition ratio ([1]; 50 µM): -0.0259
- log2 mean competition ratio ([1]; 200 µM): -0.0588

Target: ZNF823 C343
- log2 mean competition ratio ([1]; 50 µM): 0.26
- log2 mean competition ratio ([1]; 200 µM): 0.132
- log2 mean competition ratio ([2]; 50 µM): -0.059

Target: ZMYND8 C1062 (UniProt Q9ULU4)
- log2 mean competition ratio ([1]; 50 µM): 0.0887
- log2 mean competition ratio ([1]; 200 µM): -0.283

Target: ZNF623 C97
- log2 mean competition ratio ([1]; 50 µM): -0.181
- log2 mean competition ratio ([1]; 200 µM): 0.52

Target: ZNF318 C645 (UniProt Q5VUA4)
- log2 mean competition ratio ([1]; 50 µM): 0.233
- log2 mean competition ratio ([1]; 200 µM): 0.194
- log2 mean competition ratio ([2]; 50 µM): 0.296
- log2 mean competition ratio ([2]; 200 µM): -0.245
